Assay results as given in patent US20260207765A1, “COVALENTLY-MODIFIED STEROID ACID-PEPTIDES HAVING ENHANCED STABILITY AND/OR BIOLOGICAL ACTIVITY” (priority 2022, published 2026).
Not every detail of the peptide structures is certain; ends, links or a residue may be inferred. Some results were stated once for a whole list of compounds, not compound by compound. Positions of bridges follow the written chain, without caps; N, C: chain ends. Residues, ends and D or L forms follow the SMILES beside them. Chains are numbered I, II in the order given. *: point of attachment. Chenodeoxycholyl = C[C@H](CCC(=O)*)[C@H]1CC[C@H]2[C@@H]3[C@H](O)C[C@@H]4C[C@H](O)CC[C@]4(C)[C@H]3CC[C@]12C; Cholyl = C[C@H](CCC(=O)*)[C@H]1CC[C@H]2[C@@H]3[C@H](O)C[C@@H]4C[C@H](O)CC[C@]4(C)[C@H]3C[C@H](O)[C@]12C

Tests used:
[1] = test system: mesenchymal stromal cells (MSCs); experiment: Apoptosis analysis by flow cytometry on MSCs; assay type: cell-based
Description: (§1) Apoptosis analysis was conducted by flow-cytometry. Briefly, target cells were first treated then washed. Treated cells were then re-suspended in Annexin-V staining buffer prior to staining with Annexin-V and propidium iodine (PI). Fifteen minutes later, cells were washed prior to analysis using BD FACS™ Diva on CANTOII™.

[2] = test system: EL4 tumor cells; experiment: RNA sequencing / gene set enrichment of treated tumor cells; assay type: cell-based, mouse; conditions: for expression of DNA repair genes: EC100 concentrations (190 μM monomer, 6.4 μM dimer)
[3] = test system: EL4 lymphoma cells; experiment: Apoptosis analysis / kill curve by flow cytometry (Annexin-V, PI); assay type: cell-based, mouse; conditions: for cells in apoptosis: 48 μM (lower tested dose); for EC100 concentration: EL4 tumor cells
Description: as §1

[4] = test system: EL4 cells; experiment: Assessment of immunogenic cell death (HMGB1, ATP, calreticulin); assay type: cell-based, mouse

In the case of `CSCC[C@H](NC(=O)[C@@H]1CCCN1C(=O)CNC(=O)[C@H](Cc1ccccc1)NC(=O)[C@H](CC(N)=O)NC(=O)[C@H](CO)NC(=O)[C@H](CSSC[C@H](NC(=O)CC[C@@H](C)[C@H]1CC[C@H]2[C@@H]3[C@H](O)C[C@@H]4C[C@H](O)CC[C@]4(C)[C@H]3C[C@H](O)[C@]12C)C(=O)N[C@@H](CO)C(=O)N[C@@H](CC(N)=O)C(=O)N[C@@H](Cc1ccccc1)C(=O)NCC(=O)N1CCC[C@H]1C(=O)N[C@@H](CCSC)C(=O)N[C@@H](CCCCN)C(=O)NCC(=O)NCC(=O)N[C@@H](CC(N)=O)C(=O)N[C@@H](Cc1ccccc1)C(=O)NCC(=O)NCC(=O)N[C@@H](CCCNC(=N)N)C(=O)N[C@@H](CO)C(=O)N[C@@H](CO)C(=O)NCC(=O)N1CCC[C@H]1C(=O)N[C@@H](Cc1ccc(O)cc1)C(=O)O)NC(=O)CC[C@@H](C)[C@H]1CC[C@H]2[C@@H]3[C@H](O)C[C@@H]4C[C@H](O)CC[C@]4(C)[C@H]3C[C@H](O)[C@]12C)C(=O)N[C@@H](CCCCN)C(=O)NCC(=O)NCC(=O)N[C@@H](CC(N)=O)C(=O)N[C@@H](Cc1ccccc1)C(=O)NCC(=O)NCC(=O)N[C@@H](CCCNC(=N)N)C(=O)N[C@@H](CO)C(=O)N[C@@H](CO)C(=O)NCC(=O)N1CCC[C@H]1C(=O)N[C@@H](Cc1ccc(O)cc1)C(=O)O` [(CA-C-hnRNPA1)2] (I: Cholyl-CSNFGPMKGGNFGGRSSGPY-OH / II: Cholyl-CSNFGPMKGGNFGGRSSGPY-OH; disulfide I:1-II:1), the “lowest concentration at which cytotoxic effect was observed” value ([1]; FIG. 11E) was at most 5 µM.
For `CC(C)[C@H](NC(=O)[C@H](CCCCN)NC(=O)[C@H](CCCNC(=N)N)NC(=O)[C@H](CCCCN)NC(=O)[C@H](CCCCN)NC(=O)[C@H](CCCCN)NC(=O)[C@@H]1CCCN1C(=O)CNC(=O)[C@H](Cc1ccc(O)cc1)NC(=O)CNC(=O)[C@H](CSSC[C@H](NC(=O)CC[C@@H](C)[C@H]1CC[C@H]2[C@@H]3[C@H](O)C[C@@H]4C[C@H](O)CC[C@]4(C)[C@H]3CC[C@]12C)C(=O)NCC(=O)N[C@@H](Cc1ccc(O)cc1)C(=O)NCC(=O)N1CCC[C@H]1C(=O)N[C@@H](CCCCN)C(=O)N[C@@H](CCCCN)C(=O)N[C@@H](CCCCN)C(=O)N[C@@H](CCCNC(=N)N)C(=O)N[C@@H](CCCCN)C(=O)N[C@H](C(=O)NCC(=O)NCC(=O)O)C(C)C)NC(=O)CC[C@@H](C)[C@H]1CC[C@H]2[C@@H]3[C@H](O)C[C@@H]4C[C@H](O)CC[C@]4(C)[C@H]3CC[C@]12C)C(=O)NCC(=O)NCC(=O)O` [(CDCA-C-SV40)2] (I: Chenodeoxycholyl-CGYGPKKKRKVGG-OH / II: Chenodeoxycholyl-CGYGPKKKRKVGG-OH; disulfide I:1-II:1), the “number of genes upregulated or downregulated, compared to CA-C-SV40” value ([2]; 6.4 μM) was “increased”, the “TP53-related genes (GSEA)” value ([2]; 6.4 μM, compared to CA-C-SV40 monomer or control) was “significantly downregulated” and the “genes involved in oxidative phosphorylation” value ([2]; 6.4 μM, over CA-C-SV40 monomer or control) was “upregulated”. The “expression of DNA repair genes” value [2] was “significantly decreased expression”, the cells in apoptosis [3] was “over 99%” and the EC100 concentration [3] was 6.4 µM.
With `CSCC[C@H](NC(=O)[C@@H]1CCCN1C(=O)CNC(=O)[C@H](Cc1ccccc1)NC(=O)[C@H](CC(N)=O)NC(=O)[C@H](CO)NC(=O)[C@H](CSSC[C@H](NC(=O)CC[C@@H](C)[C@H]1CC[C@H]2[C@@H]3[C@H](O)C[C@@H]4C[C@H](O)CC[C@]4(C)[C@H]3CC[C@]12C)C(=O)N[C@@H](CO)C(=O)N[C@@H](CC(N)=O)C(=O)N[C@@H](Cc1ccccc1)C(=O)NCC(=O)N1CCC[C@H]1C(=O)N[C@@H](CCSC)C(=O)N[C@@H](CCCCN)C(=O)NCC(=O)NCC(=O)N[C@@H](CC(N)=O)C(=O)N[C@@H](Cc1ccccc1)C(=O)NCC(=O)NCC(=O)N[C@@H](CCCNC(=N)N)C(=O)N[C@@H](CO)C(=O)N[C@@H](CO)C(=O)NCC(=O)N1CCC[C@H]1C(=O)N[C@@H](Cc1ccc(O)cc1)C(=O)O)NC(=O)CC[C@@H](C)[C@H]1CC[C@H]2[C@@H]3[C@H](O)C[C@@H]4C[C@H](O)CC[C@]4(C)[C@H]3CC[C@]12C)C(=O)N[C@@H](CCCCN)C(=O)NCC(=O)NCC(=O)N[C@@H](CC(N)=O)C(=O)N[C@@H](Cc1ccccc1)C(=O)NCC(=O)NCC(=O)N[C@@H](CCCNC(=N)N)C(=O)N[C@@H](CO)C(=O)N[C@@H](CO)C(=O)NCC(=O)N1CCC[C@H]1C(=O)N[C@@H](Cc1ccc(O)cc1)C(=O)O` [(CDCA-C-hnRNPA1)2] (I: Chenodeoxycholyl-CSNFGPMKGGNFGGRSSGPY-OH / II: Chenodeoxycholyl-CSNFGPMKGGNFGGRSSGPY-OH; disulfide I:1-II:1) the “lowest concentration at which cytotoxic effect was observed” value ([1]; FIG. 11F) was at most 5e+06 µM.
With `CC(C)[C@H](NC(=O)[C@H](CCCCN)NC(=O)[C@H](CCCNC(=N)N)NC(=O)[C@H](CCCCN)NC(=O)[C@H](CCCCN)NC(=O)[C@H](CCCCN)NC(=O)[C@@H]1CCCN1C(=O)CNC(=O)[C@H](Cc1ccc(O)cc1)NC(=O)CNC(=O)[C@H](CS)NC(=O)CC[C@@H](C)[C@H]1CC[C@H]2[C@@H]3[C@H](O)C[C@@H]4C[C@H](O)CC[C@]4(C)[C@H]3C[C@H](O)[C@]12C)C(=O)NCC(=O)NCC(=O)O` [CA-C-SV40] (Cholyl-CGYGPKKKRKVGG-OH) the “HMGB1 (Western blot)” value [4] was “increase expression of intracellular High-mobility Group Box 1 (HMGB1) protein”, the ATP levels ([4]; over time) was “decreases intracellular ATP levels” and the calreticulin levels ([4]; over time) was “increases calreticulin levels”. The “expression of DNA repair genes” value [2] was “mostly upregulated”, the “cell death through apoptosis (Annexin V staining)” value ([3]; 190 μM, EL4) was “triggers cell death through apoptosis” and the EC100 concentration [3] was 190 µM. The “time at which apoptosis started occurring post-treatment” value ([3]; PI / Annexin-V co-staining) was 1 h.
With `CC(C)[C@H](NC(=O)[C@H](CCCCN)NC(=O)[C@H](CCCNC(=N)N)NC(=O)[C@H](CCCCN)NC(=O)[C@H](CCCCN)NC(=O)[C@H](CCCCN)NC(=O)[C@@H]1CCCN1C(=O)CNC(=O)[C@H](Cc1ccc(O)cc1)NC(=O)CNC(=O)[C@H](CS)NC(=O)CC[C@@H](C)[C@H]1CC[C@H]2[C@@H]3[C@H](O)C[C@@H]4C[C@H](O)CC[C@]4(C)[C@H]3CC[C@]12C)C(=O)NCC(=O)NCC(=O)O` [CDCA-C-SV40] (Chenodeoxycholyl-CGYGPKKKRKVGG-OH) the cells in apoptosis [3] was “over 99%”.
